Results published in PubChem BioAssay AID540276 (National Center for Advancing Translational Sciences (NCATS), 2011).
In all, about 300,000 compounds went through this assay and about 5,400 (1.8%) were called active. The shares of active, inactive and inconclusive entries below differ from those in the screen. Calls come from the whole dose curve; tested in HEK293 cells. Potencies of inconclusive entries are doubtful fits and often do not repeat.

Experiment: qHTS for inhibitors of binding or entry into cells for Marburg Virus
Settings: Marburg virus pseudotyped entry inhibition, cell reporter; series mostly up to 37.8 µM
Potency is the fitted concentration of half-maximal effect.

| SMILES | Potency |
| --- | --- |
| CCN1CCN(CC(=O)c2c(C)n(Cc3ccccc3)c3ccc(OC)cc23)CC1 | inconclusive: 0.0046 µM [inhibitor, full curve, poor fit] |
| CCN(CC)S(=O)(=O)c1cccc(-c2nnc(SCC(N)=O)n2C)c1 | inactive |
| c1ccc(C(c2ccccc2)c2noc(CN3CCN(CC4CC4)CC3)n2)cc1 | inconclusive: 11.2 µM [inhibitor, single point] |
| CC(=O)Oc1ccc(/C=N/NS(=O)(=O)c2ccccc2)cc1 | inconclusive: 35.5 µM [inhibitor, single point] |
| Cc1cccc(-c2cccc(NC(=O)C3CCCN(C(=O)c4ocnc4C)C3)c2)c1 (stereo not drawn) | inconclusive: 14.1 µM [inhibitor, single point] |
| COc1ccccc1N1CCN(C(=O)c2ccc(N(C)S(=O)(=O)c3ccccc3)cc2)CC1 | inconclusive: 32.6 µM [inhibitor, single point] |
| COc1ccc(CN2CCN(S(=O)(=O)c3ccc(F)cc3)CC2)c(OC)c1OC | inactive |
| C=C(C)c1cccc(C(C)(C)NC(=O)N2CCCCC2CC)c1 (stereo not drawn) | inconclusive: 35.5 µM [inhibitor, partial curve, poor fit] |
| COc1ccc(COC(=O)N/N=C2\C[C@@H](O)[C@@H](O)[C@@H]3[C@@H]4C(=O)N(C[C@@H]5CCCO5)C(=O)[C@@H]4CC[C@@H]23)cc1 | inconclusive: 1.19 µM [inhibitor, partial curve, poor fit] |
| Cc1ccnc(NC(=O)CNC(=O)c2ccc3ccccc3c2)c1 | inactive |
| CCOc1ccc(-c2nnc(SCC(=O)Nc3cc(C)on3)o2)cc1 | inconclusive: 5.62 µM [activator, single point] |
| O=Cc1cn(CCC(=O)O)nc1-c1cccc2ccccc12 | inactive |
| CCN1CCN(C(c2cccs2)C(C)NC(=S)Nc2cccc(C)c2C)CC1 (stereo not drawn) | inconclusive: 35.5 µM [inhibitor, single point] |
| Cc1ccc(C)c(NC(=O)COC(=O)CCCN=C2NS(=O)(=O)c3ccccc32)c1 | inconclusive: 3.55 µM [activator, full curve, poor fit] |
| CCN(CC(=O)NCc1cccs1)C(=O)c1ccc(S(=O)(=O)Nc2ccccc2OC)cc1 | inconclusive: 35.5 µM [activator, single point] |
| O=C(CC1S/C(=N/N=C/c2cccs2)NC1=O)Nc1ccc(Cl)c(Cl)c1 (stereo not drawn) | inactive |
| O=C(COC(=O)CCSc1ccc(Cl)cc1)Nc1ccc(F)cc1 | inactive |
| CCc1ccc(S(=O)(=O)/N=C2/C=C(Sc3ncn[nH]3)C(=O)c3ccccc32)cc1 | inconclusive: 1 µM [inhibitor, full curve, poor fit] |
| COC(=O)C1=CNC=C(C(=O)OC)C1c1cccc2ccccc12 | inconclusive: 2.82 µM [inhibitor, full curve] |
| O=C(Oc1ccc2c(c1)O/C(=C\c1ccncc1)C2=O)c1cccs1 | inconclusive: 20 µM [inhibitor, single point] |
| COc1cc(CNc2nnnn2C)ccc1OCc1c(F)cccc1Cl | inconclusive: 10 µM [inhibitor, partial curve, poor fit] |
| COc1ccccc1OCCSc1nnnn1C1CCCCC1 | inconclusive: 25.1 µM [activator, single point] |

| SMILES | Potency |
| --- | --- |
| CS(=O)(=O)N(CC(=O)Nc1ccc(CC#N)cc1)c1ccc(C23CC4CC(CC(C4)C2)C3)cc1 | inconclusive: 16.4 µM [inhibitor, partial curve, poor fit] |
| Cc1cccc(OCCCC(=O)Nc2nnc(C3CCCO3)s2)c1C (stereo not drawn) | inconclusive: 2.51 µM [activator, partial curve, poor fit] |
| CCOc1nc(NC(=O)NS(=O)(=O)Oc2cccc(Cl)c2)nc(-c2ccccc2)n1 | inconclusive: 35.5 µM [activator, single point] |
| Cc1ccc(NC(=O)CCSc2nnc(-c3ccco3)o2)cc1 | inactive |
| CC(=O)c1c(C)nc(-c2ccc3c(c2)OCO3)n1O | inconclusive: 10 µM [activator, single point] |
| COC(=O)Cn1cnc2c(Cl)nc(F)nc21 | inactive |
| COc1ccc(C2=NN3C(=O)c4c(ccc(OC)c4OC)C3C2)cc1 (stereo not drawn) | inactive |
| Cc1ccc(C)c(NC(=O)c2cnccn2)c1 | inconclusive: 0.794 µM [inhibitor, partial curve, poor fit] |
| COc1ccccc1C(=O)NCC(=O)Nc1ccc2c(c1)OCO2 | inactive |
| Nc1ccc(C(=O)n2c3ccccc3c3ccccc32)cc1 | active: 3.98 µM |
| CCCCCC(=O)N/N=C/c1ccc([N+](=O)[O-])o1 | inconclusive: 29.1 µM [inhibitor, single point] |
| CCOC(=O)c1nn(-c2ccccc2)c2nc(-c3ccc(OC)cc3)c(C#N)c(=O)n12 | inconclusive: 15.8 µM [activator, single point] |
| Cc1ccc(-c2csc(/C(C#N)=C(\O)CCl)n2)cc1 | inconclusive: 3.55 µM [activator, single point] |
| Cc1cc(NC(=O)C2C3C(=O)N(Cc4ccc(Cl)cc4)C(C(=O)NC(C)(C)C)C34C=CC2(C)O4)no1 (stereo not drawn) | inactive |
| COc1cccc(NC(=O)c2csc3c2CCCC3)c1 | inconclusive: 0.562 µM [activator, full curve, poor fit] |
| CCOC(=O)c1cn2nc(-c3ccc(OCC)cc3)cc2nc1C1CCN(C(=O)OC(C)(C)C)CC1 | inconclusive: 1.83 µM [inhibitor, full curve] |
| COc1ccc(NC(=O)c2ccco2)cc1NC(=O)c1ccc(Br)o1 | inactive |
| O=C(Cc1ccc(Br)cc1)NCc1ccccc1 | inconclusive: 3.16 µM [inhibitor, single point] |
| Cc1cccc(CN2CCN(C(=O)CCl)CC2)c1 | inconclusive: 25.1 µM [inhibitor, partial curve, poor fit] |
| CC(C)N(CC#CCC(O)(c1ccccc1)c1ccccc1)C(C)C | inconclusive: 25.9 µM [inhibitor, single point] |
| COCCN(C(=O)COC(=O)c1cccnc1SC)c1c(N)n(Cc2ccccc2)c(=O)[nH]c1=O | inconclusive: 14.1 µM [activator, single point] |

Not a retest: an excerpt of the list.

| SMILES | Potency |
| --- | --- |
| Cc1cc(NC(=O)C2C3C(=O)N(Cc4ccc(Cl)cc4)C(C(=O)NC(C)(C)C)C34C=CC2(C)O4)no1 (stereo not drawn) | inactive |
| COc1cccc(NC(=O)c2csc3c2CCCC3)c1 | inconclusive: 0.562 µM [activator, full curve, poor fit] |
| CCOC(=O)c1cn2nc(-c3ccc(OCC)cc3)cc2nc1C1CCN(C(=O)OC(C)(C)C)CC1 | inconclusive: 1.83 µM [inhibitor, full curve] |
| COc1ccc(NC(=O)c2ccco2)cc1NC(=O)c1ccc(Br)o1 | inactive |
